# Data from patent US20210324359A1, “USE OF GRAM-NEGATIVE LYSIN-ANTIMICROBIAL PEPTIDE (AMP) POLYPEPTIDE CONSTRUCTS IN TREATING ENDOCARDITIS” (priority 2020, published 2021).
# Some results were stated once for a whole list of compounds, not compound by compound.
# B1: GN121: variant lysin (SEQ ID NO: 175), also disclosed in WO 2019/118632 (protein)
# chain: MTYTLSKRSLDNLKGVHPDLVAVVHRAIQLTPVDFAVIEGLRSVSRQKELVAAGASKTMNSRHLTGHAVDLAAYVNGIRWDWPLYDAIAVAVKAAAKELGVAIVWGGDWTTFKDGPHFELDRSKYRRKKTRKRLKKIGKVLKWI
# B2: GN351: lysin-AMP construct: TAGGTAGG linker and amurin peptide Ecp2 C-terminal to GN316 lysin (SEQ ID NO: 32) (protein)
# chain: MAILKIGSKGLEVKNLQTSLNKIGFNLVADGIFGKATDNAVRAVQAGAGLVVDGIAGPKTMYAIRNAGESHQDHLTEADLIDAARELSVDLASIKAVNQVESRGTGFTKSGKIKTLFERHIMYKKLNAKFGQAKANALAQLYPTLVNAKAGGYTGGDAELERLHGAIAIDKDCAYESASYGLFQIMGFNCVICGYDNAEEMFNDFLTGERAQLMAFVKFIKADANLWKALKDKNWAEFARRYNGPAYAQNQYDTKLAAAYKSFSTAGGTAGGARSRRRMSKRSSRRSFRKYAKSHKKNFKARSMRGGIRL
# B3: GN370: lysin-AMP construct: MIDR, FIRL and NPTH moieties N-terminal to GN202 lysin (SEQ ID NO: 44) (protein)
# chain: MIDRFIRLNPTHGPRRPRRPGRRAPVRTSQRGIDLIKSFEGLRLSAYQDSVGVWTIGYGTTRGVTRYMTITVEQAERMLSNDIQRFEPELDRLAKVPLNQNQWDALMSFVYNLGAANLASSTLLDLLNKGDYQGAADQFPHWVNAGGKRLDGLVKRRAAERALFLEPLS
# B4: GN428: lysin obtained from Escherichia virus CBA120 (SEQ ID NO: 60) (protein, listed as Escherichia virus)
# chain: MAILKLGNRGSEVKALQQSLNKIGFSLTADGIFGKATENAVKSVQAGAGLVIDGIAGPKTFYAIRNAGDAHQEHLTEADLVDAARELGVELASMKAVNQVESRGTGFTKTGKIKTLFERHIMYKKVTAKFGQARANALYQLYPTLVNPNSGGYIGGDAELERLQGAIALDEDCAYESASYGLFQIMGFNCQICGYSNAKEMFTDFLTGERAHLLAFVKFIKADANMWKALKNKNWAEFARRYNGPAYAKNQYDTKLAAAYKSFC
# Tested on: P. aeruginosa (strain WC-452)
# Assay: 21-day serial passage resistance assay (FIGS. 4A-4E)
# Type: cell-based, Pseudomonas aeruginosa
# Conditions: over 18 days, CAA broth
row,Molecule,increase of MIC during serial passage
1,B1,≤ 2 fold
2,B2,≤ 2 fold
3,B3,≤ 2 fold
4,B4,≤ 2 fold
